Results are given in words; binding and its absence hold for the method and conditions named. Binding seen in cells or lysates may run through a third protein. A yes stands for co-enrichment or nearness to the bait. Other partners may have been found.
Molecular target: CCNB1-mCherry (cyclin B1 tagged at the endogenous locus) (human (endogenous in HeLa)) (UniProt P14635)
Test: affinity purification with mass spectrometry; CCNB1-mCherry or CCNB1-GFP precipitated with sheep anti-mCherry or anti-GFP antibodies and protein G-sepharose (2 h, 4°C) from lysates of HeLa cells arrested with 0.3 µM nocodazole for 16 h; parental HeLa as control; 20 mM Tris-HCl pH 7.4, 150 mM NaCl, 1% Igepal CA-630, 0.1% sodium deoxycholate; eluted with glycine pH 2.6

Protein sequences, listed by entry. Tags and fused reporters are not part of them.
UniProt P14635: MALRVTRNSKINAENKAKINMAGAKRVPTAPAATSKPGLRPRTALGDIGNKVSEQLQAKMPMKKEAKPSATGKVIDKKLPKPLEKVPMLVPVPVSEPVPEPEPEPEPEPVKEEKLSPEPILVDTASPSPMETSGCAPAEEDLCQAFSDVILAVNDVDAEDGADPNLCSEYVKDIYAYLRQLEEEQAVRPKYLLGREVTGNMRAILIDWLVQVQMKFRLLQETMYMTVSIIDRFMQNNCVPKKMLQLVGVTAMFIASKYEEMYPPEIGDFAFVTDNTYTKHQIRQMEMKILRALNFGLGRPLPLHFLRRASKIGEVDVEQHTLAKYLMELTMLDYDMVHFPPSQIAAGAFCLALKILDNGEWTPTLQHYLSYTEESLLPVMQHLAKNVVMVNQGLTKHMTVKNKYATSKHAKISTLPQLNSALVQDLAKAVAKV
UniProt P33552: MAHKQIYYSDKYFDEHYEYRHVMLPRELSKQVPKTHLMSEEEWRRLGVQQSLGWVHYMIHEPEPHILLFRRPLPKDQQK
UniProt Q14980: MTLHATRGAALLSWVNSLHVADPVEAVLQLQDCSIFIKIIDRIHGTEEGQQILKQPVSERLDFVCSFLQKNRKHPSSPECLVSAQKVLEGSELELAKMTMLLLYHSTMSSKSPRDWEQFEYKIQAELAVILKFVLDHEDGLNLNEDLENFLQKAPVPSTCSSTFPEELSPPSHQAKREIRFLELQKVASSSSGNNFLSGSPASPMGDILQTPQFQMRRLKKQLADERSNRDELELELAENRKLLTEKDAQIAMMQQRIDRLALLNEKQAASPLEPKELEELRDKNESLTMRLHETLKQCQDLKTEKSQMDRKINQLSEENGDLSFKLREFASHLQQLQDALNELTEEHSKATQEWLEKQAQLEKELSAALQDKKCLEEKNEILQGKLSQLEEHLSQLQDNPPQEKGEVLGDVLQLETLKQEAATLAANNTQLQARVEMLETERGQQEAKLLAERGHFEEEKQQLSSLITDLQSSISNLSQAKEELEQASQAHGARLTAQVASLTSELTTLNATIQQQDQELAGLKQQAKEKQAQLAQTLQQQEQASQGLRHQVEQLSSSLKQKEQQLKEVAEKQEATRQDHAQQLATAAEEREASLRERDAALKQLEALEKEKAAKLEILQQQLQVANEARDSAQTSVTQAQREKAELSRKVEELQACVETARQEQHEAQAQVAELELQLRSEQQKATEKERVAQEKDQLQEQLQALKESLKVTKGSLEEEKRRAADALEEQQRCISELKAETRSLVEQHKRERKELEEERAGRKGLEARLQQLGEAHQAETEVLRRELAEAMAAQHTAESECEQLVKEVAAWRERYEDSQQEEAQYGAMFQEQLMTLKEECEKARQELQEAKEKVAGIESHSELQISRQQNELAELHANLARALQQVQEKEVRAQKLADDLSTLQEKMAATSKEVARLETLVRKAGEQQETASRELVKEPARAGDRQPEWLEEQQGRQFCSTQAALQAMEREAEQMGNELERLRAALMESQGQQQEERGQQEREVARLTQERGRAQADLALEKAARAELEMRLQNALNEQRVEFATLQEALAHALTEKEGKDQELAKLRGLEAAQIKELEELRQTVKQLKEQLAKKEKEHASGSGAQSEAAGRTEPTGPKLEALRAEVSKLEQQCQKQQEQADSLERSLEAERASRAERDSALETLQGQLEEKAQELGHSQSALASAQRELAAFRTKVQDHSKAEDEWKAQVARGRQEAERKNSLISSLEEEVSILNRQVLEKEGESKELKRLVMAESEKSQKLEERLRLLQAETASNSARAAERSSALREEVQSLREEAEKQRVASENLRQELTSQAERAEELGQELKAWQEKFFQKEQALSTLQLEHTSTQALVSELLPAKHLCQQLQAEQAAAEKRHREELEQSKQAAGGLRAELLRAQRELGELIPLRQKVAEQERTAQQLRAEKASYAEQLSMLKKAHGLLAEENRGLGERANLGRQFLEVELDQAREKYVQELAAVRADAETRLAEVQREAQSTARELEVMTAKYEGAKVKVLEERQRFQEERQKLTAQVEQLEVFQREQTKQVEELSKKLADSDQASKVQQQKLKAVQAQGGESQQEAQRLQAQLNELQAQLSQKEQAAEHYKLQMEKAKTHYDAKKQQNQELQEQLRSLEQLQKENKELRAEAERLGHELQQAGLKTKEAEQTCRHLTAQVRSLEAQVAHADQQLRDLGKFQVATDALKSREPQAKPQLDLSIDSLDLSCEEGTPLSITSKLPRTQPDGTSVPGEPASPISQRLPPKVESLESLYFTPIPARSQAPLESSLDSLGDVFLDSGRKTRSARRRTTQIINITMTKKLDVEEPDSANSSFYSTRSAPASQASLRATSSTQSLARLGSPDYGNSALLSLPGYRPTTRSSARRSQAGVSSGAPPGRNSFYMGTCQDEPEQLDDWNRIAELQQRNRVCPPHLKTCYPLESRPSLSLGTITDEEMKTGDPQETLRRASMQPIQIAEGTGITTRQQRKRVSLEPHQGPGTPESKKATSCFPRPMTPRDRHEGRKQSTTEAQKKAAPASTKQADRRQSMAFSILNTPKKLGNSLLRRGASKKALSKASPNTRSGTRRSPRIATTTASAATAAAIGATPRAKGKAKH

Substance	binding
CKS2 (from UniProt P33552 1-79)	binds
spindle protein NuMA (from UniProt Q14980 1-2115)	binds

— paper PMC6446853
